In PubChem BioAssay AID2685 (National Center for Advancing Translational Sciences (NCATS), 2010):
The other results are listed elsewhere or left out. Further columns of the screen follow, without active or inactive calls. Most of these compounds were active or inconclusive in the main read-out, so they are no random draw. The note in brackets gives the kind of curve behind each potency; many fits are weak.

Experiment: qHTS Assay for Lipid Storage Modulators in Drosophila S3 Cells;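 on cell number change: cells counted by Cell Tracker Red CMTPX staining in the red channel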
Details: BODIPY lipid droplet fluorescence, 18-24 h; for cell number change: measured here: cell count max response, cells fed with added oleic acid
Method in brief: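 Drosophila S3 cells loaded with oleic acid (400 uM, as added) and compounds at several concentrations; lipid droplets imaged by 488-nm laser-scanning cytometry, 500–530 nm intensity and object ratio to cell channel. Percent activity normalized to 20 uM Triacsin C.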

[1] = measured here: cell number channel AC50, cells fed with added oleic acid
[2] = measured here: lipid fluorescence (Fed channel) AC50, cells fed with added oleic acid

SMILES | cell number change [%] | AC50 [1] | AC50 [2]
CCN(CC)S(=O)(=O)c1ccc(C(C)NC(=O)C2CCCN2C(=O)c2cccs2)cc1 (stereo not drawn) | -55.6 | 3.66 µM [falling, full curve] | 4.11 µM [falling, full curve]
COc1ccc(CNC(=O)c2cc3c(=O)[nH]c4ccccc4c3n2C)cc1 | 29.2 | 0.0206 µM [rising, full curve, poor fit] | 0.651 µM [rising, partial curve]
O=C(Nc1nc(-c2ccc(Cl)s2)cs1)c1cccs1 | -13.2 | 6.51 µM [rising, single point] | –
COc1ccc(OC)c(-c2cc(C(=O)Nc3c(C)nn(Cc4ccc(Cl)cc4)c3C)no2)c1 | 0.812 | – | 0.164 µM [rising, full curve, poor fit]
O=C(O)c1cccc(S(=O)(=O)Nc2ccc3c(c2)OCO3)c1 | 40.1 | 1.3 µM [rising, full curve] | –
Cc1ccccc1NC(=O)C1C2CC/C=C\CCC21 (stereo not drawn) | 11.6 | – | 16.4 µM [rising, partial curve]
CCn1c(C)c(C2=CCN(S(=O)(=O)c3ccc(C)cc3)CC2)c2ccccc21 | -3.66 | – | 6.51 µM [falling, full curve, poor fit]
O=C(O)c1ccc2c(c1)C(=O)N(c1ccc(Cl)cn1)C2=O | -17.2 | – | 0.13 µM [falling, full curve, poor fit]
O=C1c2cnc3nc(SCc4cccc(Cl)c4)nn3c2CC2c3ccccc3CCN12 (stereo not drawn) | 20.6 | – | 0.00461 µM [falling, full curve, poor fit]
Cc1ccccc1-n1sc2cc(F)ccc2c1=O | -77.4 | 29.1 µM [falling, single point] | 20.6 µM [falling, partial curve]
O=C(Nc1ccc(F)cc1F)c1noc2c1CCC2 | 3.51 | – | –
Cc1ccccc1-n1nnnc1SCC(=O)NCC1(N2CCOCC2)CCCCC1 | -3.3 | – | 0.00517 µM [falling, full curve, poor fit]
COc1ccc(C(=O)COc2ccccc2N2C(=O)C3C4C=CC(C4)C3C2=O)cc1 (stereo not drawn) | 32.6 | 0.00461 µM [rising, full curve, poor fit] | 8.2 µM [rising, partial curve]
CC1CCCN(c2ccc(C(=O)OCC(=O)N3c4ccccc4Sc4ccccc43)cc2[N+](=O)[O-])C1 (stereo not drawn) | 125 | 16.4 µM [rising, partial curve, poor fit] | 8.2 µM [falling, partial curve]
CCn1cc(C(=O)O)c(=O)c2cc(F)c(N/N=C/c3ccccc3[N+](=O)[O-])cc21 | 56.3 | 29.1 µM [rising, single point] | 18.4 µM [rising, single point]
Cc1ccc(SCc2nc(N)nc(Nc3ccccc3C)n2)c(C)c1 | 2.53 | – | 29.1 µM [rising, single point]
CC(=O)NCCC(=O)NCC1(N(C)Cc2ccccc2)Cc2ccccc2C1 | -0.739 | – | 0.184 µM [rising, full curve, poor fit]
Cc1c(C(=O)Nc2ccc(S(=O)(=O)Nc3ncccn3)cc2)oc2ccc(Cl)cc12 | 35.7 | 25.9 µM [rising, single point] | –
CCOc1ccc(CCNC(=O)CN2C(=O)c3cccnc3Oc3ccc(C)cc32)cc1OCC | -32.9 | 8.2 µM [falling, partial curve] | 2.59 µM [falling, full curve]
OC(CN1CCCC(C(F)(F)F)C1)c1ccccc1 (stereo not drawn) | 10.8 | – | –
O=C(NCCNC(=O)c1cc(OCC(F)(F)F)ccc1OCC(F)(F)F)Nc1ccc(Cl)cc1 | 0.14 | – | –
O=C(COc1ccc(Cl)cc1Cl)Nc1ccc(Cl)cn1 | 7.58 | 2.06 µM [rising, partial curve, poor fit] | –
COc1cccc(CNS(=O)(=O)c2c(C)nc3scc(C)n3c2=O)c1 | -4.2 | – | 29.1 µM [rising, single point]
O=C(c1cc(-c2ccncc2)nc2ccccc12)N1CCOCC1 | – | – | 6.51 µM [rising, single point]
N#Cc1c(NC(=O)CSCC(=O)O)sc2c1CCCC2 | 1.22 | – | 3.66 µM [falling, full curve, poor fit]
N#Cc1cccc(S(=O)(=O)NCC(=O)OCC(=O)NCc2ccccc2)c1 | -9.74 | – | 3.66 µM [rising, single point]
O=C(Nc1ccc(NC(=O)c2cccs2)cc1)c1cccs1 | 107 | 25.9 µM [rising, partial curve] | 0.58 µM [falling, single point]

Just AC50 [2] and AC50 [1], for two of the compounds above:
SMILES	AC50 [2]	AC50 [1]
O=C(COc1ccc(Cl)cc1Cl)Nc1ccc(Cl)cn1	–	2.06 µM [rising, partial curve, poor fit]
COc1cccc(CNS(=O)(=O)c2c(C)nc3scc(C)n3c2=O)c1	29.1 µM [rising, single point]	–
